Measured values taken from patent US20110172147A1 (priority 2009, published 2011).

test: general procedure: Fmoc solid-phase peptide synthesis; Fmoc-Linker-BHA resin (Rink linker); Rink Amide Resin; HBTU and DIC preferred, with HOBt; conditions: whole synthesis, scale 0.22 mmol, 1:2 TFA

Substance	isolated mass [mg]	isolated yield [%]
CH3—(OCH2CH2)2—O—CH2—CO-Ile-Lys(Eicosanoyl-gammaGlu-gammaGlu)-Pqa-Arg-His-Tyr-Leu-Asn-Trp-Val-Thr-Arg-Gln-(NMe)-Arg-Tyr-NH2 1:2 TFA	31	5
CH3—(OCH2CH2)7—O—(CH2)2—CO-Ile-Lys(Eicosanoyl-gammaGlu-gammaGlu)-Pqa-Arg-His-Tyr-Leu-Asn-Trp-Val-Thr-Arg-Gln-(NMe)-Arg-Tyr-NH2 1:2 TFA	67	11
CH3—(OCH2CH2)11—O—(CH2)2—CO-Ile-Lys(Eicosanoyl-gammaGlu-gammaGlu)-Pqa-Arg-His-Tyr-Leu-Asn-Trp-Val-Thr-Arg-Gln-(NMe)-Arg-Tyr-NH2 1:2 TFA	66	11
CH3—(OCH2CH2)23—O—(CH2)2—CO-Ile-Lys(Eicosanoyl-Cys{SO3}-Cys {SO3})-Pqa-Cit-His-Tyr-Leu-Asn-Trp-Val-Thr-Arg-Gln-(NMe)-Arg-Tyr-NH2 1:2 TFA	51	6
CH3—(OCH2CH2)23—O—(CH2)2—CO-Ile-Lys(Eicosanoyl-gammaGlu-gammaGlu)-Pqa-Arg-His-Tyr-Leu-Asn-Trp-Val-Thr-Arg-Gln-(NMe)-Arg-Tyr-NH2 1:2 TFA	34	4.4
CH3—(OCH2CH2)23—O—(CH2)2—CO-Ile-Lys(Palmitoyl-5AOPS)-Pqa-Cit-His-Tyr-Leu-Asn-Trp-Val-Thr-Arg-Gln-(NMe)-Arg-Tyr-NH2 1:2 TFA	76	10
Eicosanoyl-6Ahx-Ile-Lys[CH3—(OCH2CH2)23—O—(CH2)2—CO]-Pqa-Cit-His-Tyr-Leu-Asn-Trp-Val-Thr-Arg-Gln-(NMe)-Arg-Tyr-NH2 1:2 TFA	64	9
Eicosanoyl-Glu-Glu-Ile-Lys[CH3—(OCH2CH2)7—O—(CH2)2—CO]-Pqa-Cit-His-Tyr-Leu-Asn-Trp-Val-Thr-Arg-Gln-(NMe)-Arg-Tyr-NH2 1:2 TFA	53	8
Eicosanoyl-Glu-Glu-Ile-Lys[CH3—(OCH2CH2)11—O—(CH2)2—CO]-Pqa-Cit-His-Tyr-Leu-Asn-Trp-Val-Thr-Arg-Gln-(NMe)-Arg-Tyr-NH2 1:2 TFA	32	5
Eicosanoyl-Glu-Glu-Ile-Lys[CH3—(OCH2CH2)15—O—(CH2)2—CO]-Pqa-Cit-His-Tyr-Leu-Asn-Trp-Val-Thr-Arg-Gln-(NMe)-Arg-Tyr-NH2 1:2 TFA	32	5

same assay, conditions: whole synthesis, scale 0.22 mmol, 1:3 TFA

Substance	isolated mass [mg]	isolated yield [%]
15-Carboxy-pentadecanoyl-Glu-Glu-Ile-Lys[CH3—(OCH2CH2)15—O—(CH2)2—CO]-Pqa-Arg-His-Tyr-Leu-Asn-Trp-Val-Thr-Arg-Gln-(NMe)-Arg-Tyr-NH2 1:3 TFA	43	6
Ac-Ile-Lys[CH3—(OCH2CH2)23—O—(CH2)2—CO]-Pqa-Arg-His-Tyr-Leu-Asn-Trp-Val-Thr-Arg-Gln-(NMe)-Arg-Tyr-NH2 1:3 TFA	66	10
Ac-Ile-Lys[Palmitoyl-6Ahx-NH—CH2CH2—(OCH2CH2)23—O—(CH2)2—CO]-Pqa-Arg-His-Tyr-Leu-Asn-Trp-Val-Thr-Arg-Gln-(NMe)-Arg-Tyr-NH2 1:3 TFA	58	8
CH3—(OCH2CH2)5—O—CH2—CO-Ile-Lys(Palmitoyl-5AOPS)-Pqa-Arg-His-Tyr-Leu-Asn-Trp-Val-Thr-Arg-Gln-(NMe)-Arg-Tyr-NH2 1:3 TFA	73	13
CH3—(OCH2CH2)5—O—CH2—CO-Ile-Lys(Palmitoyl-6Ahx)-Pqa-Arg-His-Tyr-Leu-Asn-Trp-Val-Thr-Arg-Gln-(NMe)-Arg-Tyr-NH2 1:3 TFA	70	12
CH3—(OCH2CH2)7—O—(CH2)2—CO-6Ahx-Ile-Lys-Pqa-Arg-His-Tyr-Leu-Asn-Trp-Val-Thr-Arg-Gln-(NMe)-Arg-Tyr-NH2 1:3 TFA	85	16
CH3—(OCH2CH2)7—O—(CH2)2—CO-Ile-Lys(Palmitoyl-6Ahx)-Pqa-Arg-His-Tyr-Leu-Asn-Trp-Val-Thr-Arg-Gln-(NMe)-Arg-Tyr-NH2 1:3 TFA	143	24
CH3—(OCH2CH2)11—O—(CH2)2—CO-6Ahx-Ile-Lys-Pqa-Arg-His-Tyr-Leu-Asn-Trp-Val-Thr-Arg-Gln-(NMe)-Arg-Tyr-NH2 1:3 TFA	90	16
CH3—(OCH2CH2)11—O—(CH2)2—CO-Ile-Lys(Palmitoyl-5AOPS)-Pqa-Arg-His-Tyr-Leu-Asn-Trp-Val-Thr-Arg-Gln-(NMe)-Arg-Tyr-NH2 1:3 TFA	83	13
CH3—(OCH2CH2)11—O—(CH2)2—CO-Ile-Lys(Palmitoyl-6Ahx)-Pqa-Arg-His-Tyr-Leu-Asn-Trp-Val-Thr-Arg-Gln-(NMe)-Arg-Tyr-NH2 1:3 TFA	54	9
CH3—(OCH2CH2)15—O—(CH2)2—CO-6Ahx-Ile-Lys-Pqa-Arg-His-Tyr-Leu-Asn-Trp-Val-Thr-Arg-Gln-(NMe)-Arg-Tyr-NH2 1:3 TFA	92	15
CH3—(OCH2CH2)15—O—(CH2)2—CO-Ile-Lys(Palmitoyl-5AOPS)-Pqa-Arg-His-Tyr-Leu-Asn-Trp-Val-Thr-Arg-Gln-(NMe)-Arg-Tyr-NH2 1:3 TFA	43.5	6
CH3—(OCH2CH2)15—O—(CH2)2—CO-Ile-Lys(Palmitoyl-6Ahx)-Pqa-Arg-His-Tyr-Leu-Asn-Trp-Val-Thr-Arg-Gln-(NMe)-Arg-Tyr-NH2 1:3 TFA	67	10
CH3—(OCH2CH2)23—O—(CH2)2—CO-6Ahx-Ile-Lys-Pqa-Arg-His-Tyr-Leu-Asn-Trp-Val-Thr-Arg-Gln-(NMe)-Arg-Tyr-NH2 1:3 TFA	89	13
CH3—(OCH2CH2)23—O—(CH2)2—CO-Ile-Lys(Eicosanoyl-Cys{SO3}-Cys{SO3})-Pqa-Arg-His-Tyr-Leu-Asn-Trp-Val-Thr-Arg-Gln-(NMe)-Arg-Tyr-NH2 1:3 TFA	28.4	4
CH3—(OCH2CH2)23—O—(CH2)2—CO-Ile-Lys(Palmitoyl-5AOPS)-Pqa-Arg-His-Tyr-Leu-Asn-Trp-Val-Thr-Arg-Gln-(NMe)-Arg-Tyr-NH2 1:3 TFA	63	8
CH3—(OCH2CH2)23—O—(CH2)2—CO-Ile-Lys(Palmitoyl-6Ahx)-Pqa-Arg-His-Tyr-Leu-Asn-Trp-Val-Thr-Arg-Gln-(NMe)-Arg-Tyr-NH2 1:3 TFA	40	6
CH3—(OCH2CH2)23—O—(CH2)2—CO-Ile-Lys(Palmitoyl-Cys{SO3}-Cys{SO3})-Pqa-Arg-His-Tyr-Leu-Asn-Trp-Val-Thr-Arg-Gln-(NMe)-Arg-Tyr-NH2 1:3 TFA	44	6
Eicosanoyl-6Ahx-Ile-Lys[CH3—(OCH2CH2)23—O—(CH2)2—CO]-Pqa-Arg-His-Tyr-Leu-Asn-Trp-Val-Thr-Arg-Gln-(NMe)-Arg-Tyr-NH2 1:3 TFA	86	12
Eicosanoyl-Cys(SO3)-Cys(SO3)-Glu-Ile-Lys[CH3—(OCH2CH2)23—O—(CH2)2—CO]-Pqa-Cit-His-Tyr-Leu-Asn-Trp-Val-Thr-Arg-Gln-(NMe)-Arg-Tyr-NH2 1:3 TFA	37	4
Eicosanoyl-Glu-Glu-(D)alloIle-Lys[CH3—(OCH2CH2)23—O—(CH2)2—CO]-Pqa-Arg-His-Tyr-Leu-Asn-Trp-Val-Thr-Arg-Gln-(NMe)-Arg-Tyr-NH2 1:3 TFA	90	12
Eicosanoyl-Glu-Glu-Ile-Lys[CH3—(OCH2CH2)11—O—(CH2)2—CO]-Pqa-Arg-His-Tyr-Leu-Asn-Trp-Val-Thr-Arg-Gln-(NMe)-Arg-Tyr-NH2 1:3 TFA	18	3
Eicosanoyl-Glu-Glu-Ile-Lys[CH3—(OCH2CH2)15—O—(CH2)2—CO]-Pqa-Arg-His-Tyr-Leu-Asn-Trp-Val-Thr-Arg-Gln-(NMe)-Arg-Tyr-NH2 1:3 TFA	17	2
Eicosanoyl-Glu-Glu-Ile-Lys[CH3—(OCH2CH2)23—O—(CH2)2—CO]-Pqa-Arg-His-Tyr-Leu-Asn-Trp-Val-Thr-Arg-Gln-(NMe)-Arg-Tyr-NH2 1:3 TFA	53	7

same assay, conditions: whole synthesis, scale 0.22 mmol, TFA

Substance	isolated mass [mg]	isolated yield [%]
CH3—(OCH2CH2)15—O—(CH2)2—CO-Ile-Lys(Eicosanoyl-gammaGlu-gammaGlu)-Pqa-Arg-His-Tyr-Leu-Asn-Trp-Val-Thr-Arg-Gln-(NMe)-Arg-Tyr-NH2	67	10

same assay, conditions: whole synthesis, scale 0.25 mmol, 1:2 TFA

Substance	isolated mass [mg]	isolated yield [%]
Eicosanoyl-Glu-Glu-Ile-Lys[CH3—(OCH2CH2)23—O—(CH2)2—CO]-Pqa-Cit-His-Tyr-Leu-Asn-Trp-C-alphaMeVal-Thr-Arg-Gln-(NMe)-Arg-Tyr-NH2 1:2 TFA	70	9
Eicosanoyl-Glu-Glu-Ile-Lys[CH3—(OCH2CH2)23—O—(CH2)2—CO]-Pqa-Cit-His-Tyr-Leu-Asn-Trp-Val-Thr-Arg(CO)-Gln-(NMe)-Arg-Tyr-NH2 1:2 TFA	54	7

same assay, conditions: whole synthesis, scale 0.25 mmol, 1:3 TFA

Substance	isolated mass [mg]	isolated yield [%]
Eicosanoyl-Glu-Glu-Ile-Lys[CH3—(OCH2CH2)11—O—(CH2)2—CO]-Pqa-Arg-His-Tyr-His-Asn-Trp-Val-Thr-Arg-Gln-Arg-Tyr-NH2 1:3 TFA	283	43
Eicosanoyl-Glu-Glu-Ile-Lys[CH3—(OCH2CH2)15—O—(CH2)2—CO]-Pqa-Arg-His-Tyr-His-Asn-Trp-Val-Thr-Arg-Gln-Arg-Tyr-NH2 1:3 TFA	340	49

same assay, conditions: whole synthesis, scale 0.25 mmol, TFA

Substance	isolated mass [mg]	isolated yield [%]
Ac-Ile-Lys-Pqa-Arg-His-Tyr-Leu-Asn-Trp-Val-Thr-Arg-Gln-(NMe)Arg-Tyr-NH2	68	15
